Laboratory results taken from patent publication US20090291879A1 (published 2009).
No constants are given. Whether binding was seen depends on the method and setting. Some entries that bind do so weakly or less than the wild type. Sequences can lack the tags named with a protein.

Sequences of proteins named here, by UniProt entry; tags and fusion partners are left off. A change or cut given only in a name is not applied to a line headed by its entry.
UniProt P17301: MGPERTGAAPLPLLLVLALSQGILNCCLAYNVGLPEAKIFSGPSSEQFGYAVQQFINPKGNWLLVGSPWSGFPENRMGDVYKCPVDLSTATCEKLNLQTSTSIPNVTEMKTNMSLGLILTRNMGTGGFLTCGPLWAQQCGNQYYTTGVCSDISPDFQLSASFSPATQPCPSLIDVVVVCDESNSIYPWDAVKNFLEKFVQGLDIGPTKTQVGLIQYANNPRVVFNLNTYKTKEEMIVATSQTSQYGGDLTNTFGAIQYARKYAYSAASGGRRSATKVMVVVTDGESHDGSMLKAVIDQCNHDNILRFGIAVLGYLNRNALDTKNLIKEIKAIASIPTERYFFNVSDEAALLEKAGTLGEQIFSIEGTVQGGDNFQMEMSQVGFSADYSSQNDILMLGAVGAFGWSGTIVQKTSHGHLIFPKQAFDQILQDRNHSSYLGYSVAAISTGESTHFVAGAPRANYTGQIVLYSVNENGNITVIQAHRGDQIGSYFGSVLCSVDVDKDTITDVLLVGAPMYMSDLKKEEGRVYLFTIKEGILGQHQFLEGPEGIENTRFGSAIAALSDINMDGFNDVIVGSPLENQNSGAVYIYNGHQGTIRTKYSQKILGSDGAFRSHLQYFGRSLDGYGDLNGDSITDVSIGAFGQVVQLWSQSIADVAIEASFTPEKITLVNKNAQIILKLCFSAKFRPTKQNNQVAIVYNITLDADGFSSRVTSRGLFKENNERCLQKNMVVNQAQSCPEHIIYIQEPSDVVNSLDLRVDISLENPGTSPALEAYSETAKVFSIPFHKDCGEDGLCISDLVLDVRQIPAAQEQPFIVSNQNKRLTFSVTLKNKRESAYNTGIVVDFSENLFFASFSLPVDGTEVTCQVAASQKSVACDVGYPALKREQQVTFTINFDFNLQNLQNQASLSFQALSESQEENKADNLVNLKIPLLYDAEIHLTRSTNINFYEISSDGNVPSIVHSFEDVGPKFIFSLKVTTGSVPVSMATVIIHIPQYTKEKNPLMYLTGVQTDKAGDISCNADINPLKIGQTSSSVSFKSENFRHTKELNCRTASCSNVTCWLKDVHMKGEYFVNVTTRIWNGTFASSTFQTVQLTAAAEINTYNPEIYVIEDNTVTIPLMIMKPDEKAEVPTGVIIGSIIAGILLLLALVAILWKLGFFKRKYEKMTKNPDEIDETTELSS
UniProt P05556: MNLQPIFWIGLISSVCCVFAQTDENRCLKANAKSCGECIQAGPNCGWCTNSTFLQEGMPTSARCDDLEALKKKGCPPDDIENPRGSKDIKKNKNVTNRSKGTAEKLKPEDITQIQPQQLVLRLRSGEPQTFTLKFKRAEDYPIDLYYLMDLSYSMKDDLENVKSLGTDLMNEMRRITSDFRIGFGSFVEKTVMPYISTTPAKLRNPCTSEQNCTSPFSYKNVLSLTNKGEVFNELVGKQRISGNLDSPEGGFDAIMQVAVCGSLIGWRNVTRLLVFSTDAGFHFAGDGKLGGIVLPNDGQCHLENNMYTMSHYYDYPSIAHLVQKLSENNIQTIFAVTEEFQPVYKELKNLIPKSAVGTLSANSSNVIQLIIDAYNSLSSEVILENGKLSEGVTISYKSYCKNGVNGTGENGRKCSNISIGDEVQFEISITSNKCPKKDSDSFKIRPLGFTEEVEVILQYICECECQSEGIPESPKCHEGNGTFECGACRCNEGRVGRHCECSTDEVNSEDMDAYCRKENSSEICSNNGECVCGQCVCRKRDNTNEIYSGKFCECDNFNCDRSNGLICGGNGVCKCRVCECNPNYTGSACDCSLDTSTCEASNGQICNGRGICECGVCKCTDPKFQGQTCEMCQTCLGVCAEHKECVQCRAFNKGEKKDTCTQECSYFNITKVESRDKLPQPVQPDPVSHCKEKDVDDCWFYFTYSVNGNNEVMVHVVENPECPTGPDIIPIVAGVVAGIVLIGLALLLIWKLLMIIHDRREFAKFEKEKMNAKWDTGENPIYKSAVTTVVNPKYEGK

Biological target: Integrin α2β1 on human chondrosarcoma cells (K9, K105) (human) (UniProt P17301+P05556)
Assay: adhesion of K9 cells to coated protein, 1 hour, N-acetylglucosaminidase read-out; receptor as attributed in paragraph 181

binding	Binder
binds	Recombinant human chondroadherin expressed in EBNA cells (ligand) CPQNCHCHSDLQHVICDKVGLQKIPKVSEKTKLLNLQRNNFPVLAANSFRAMPNLVSLHLQHCQIREVAAGAFRGLKQLIYLYLSHNDIRVLRAGAFDDLTELTYLYLDHNKVTELPRGLLSPLVNLFILQLNNNKIRELRAGRFQGAKDLRWLYLSENALSSLQPGALDDVENLAKFHVDRNQLSSYPSAALSKLRVVEELKLSHNPLKSIPDNAFQSFGRYLETLWLDNTNLEKFSDGAFLGVTTLKHVHLENNRLNQLPSNFPFDSLETLALTNNPWKCTCQLRGLRRWLEAKASRPDATCASPAKFKGQHIRDTDAFRSCKFPTKRSKKAGRH
binds	Human chondroadherin expressed in E. coli (His-tagged, unfolded) (ligand, not shown: small tags and cut ends, cysteine residues blocked by N-ethylmaleimide) CPQNCHCHSDLQHVICDKVGLQKIPKVSEKTKLLNLQRNNFPVLAANSFRAMPNLVSLHLQHCQIREVAAGAFRGLKQLIYLYLSHNDIRVLRAGAFDDLTELTYLYLDHNKVTELPRGLLSPLVNLFILQLNNNKIRELRAGRFQGAKDLRWLYLSENALSSLQPGALDDVENLAKFHVDRNQLSSYPSAALSKLRVVEELKLSHNPLKSIPDNAFQSFGRYLETLWLDNTNLEKFSDGAFLGVTTLKHVHLENNRLNQLPSNFPFDSLETLALTNNPWKCTCQLRGLRRWLEAKASRPDATCASPAKFKGQHIRDTDAFRSCKFPTKRSKKAGRH
